## Results of single-concentration screens

Results are given as percent effect. The controls that fix the scale are not given in the record; negative values are as filed. The compounds are a random part of those screened.

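Assay of Toxoplasma gondii numbers, read through their beta-galactosidase reporter with a colour substrate. Compounds at 50 µM. The record gives no direction; the compounds picked for IC50 retests had high values, so higher reads as fewer parasites. Of about 18,000 compounds tested this way, about 170 (0.94%) reached 50% or more in at least one test.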

structure: COCC(C)Oc1ccc(Cl)cc1S(N)(=O)=O (configuration not stated)
Percent Effect: -15.9%

structure: NCCc1cnc2ccccc2c1
Percent Effect: -15.54%

structure: Cc1nc(CN2CCn3ccnc3C2)oc1C
Percent Effect: 0.405%

structure: CCOc1ccccc1C(=O)Nn1cnnc1
Percent Effect: 6.242%

structure: CC(Sc1nc2ncccn2n1)C(=O)NC1CC1 (configuration not stated)
Percent Effect: -5.386%

structure: Cc1cccnc1C(=O)N1CCCN2CCC[C@H]2C1
Percent Effect: -4.977%

structure: O=S1(=O)CCN(c2ncc(C(F)(F)F)cc2Cl)CC1
Percent Effect: -4.44%

structure: Cn1c(CNC(=O)C2=CCCCO2)nnc1C1CCC1
Percent Effect: -2.466%

structure: CCc1cnc(CNC(=O)NCc2cnn(C)c2)s1
Percent Effect: -4.497%

structure: O=C1CCCN1CC1CCCCN1 (configuration not stated)
Percent Effect: 2.503%

structure: NC(=O)C1CCN(C(=O)COc2ccc(F)cc2Br)C1 (configuration not stated)
Percent Effect: 19.16%

structure: Nc1nc(CNC(=O)CCN2CCCCCC2=O)n[nH]1
Percent Effect: -19.89%

structure: O=C1C(NCc2cscn2)CCCN1c1cccnc1 (configuration not stated)
Percent Effect: -0.6749%

structure: N[C@@H]1CN(c2ncccn2)C[C@H]1CO
Percent Effect: 20.83%

structure: Cc1cc(=O)[nH]c(C2(N)CCCC2)n1
Percent Effect: 9.677%

structure: Cc1ccc(=O)n(Cc2nc(C3CCOC3)no2)n1 (configuration not stated)
Percent Effect: 22.31%

structure: NCC(CO)Cc1c(F)cccc1Cl (configuration not stated)
Percent Effect: 28.38%

structure: Cc1nc(CC2CCCNC2)no1 (configuration not stated)
Percent Effect: -12.86%

structure: Cc1nc(CN2CCN(CC3(O)CCNC3)CC2)cs1 (configuration not stated)
Percent Effect: -2.115%

structure: O=C1C(N2CCNCC2)CCCN1CC(F)(F)F (configuration not stated)
Percent Effect: 4.137%

structure: CCC1(CO)CCCN(c2ccncc2F)C1 (configuration not stated)
Percent Effect: -8.586%

structure: CC(C)NC(=O)COC(=O)c1cccc2cn[nH]c12
Percent Effect: -2.43%

structure: OCCNC1CCCCC1
Percent Effect: 3.622%

structure: O=C(Nc1cccc(F)c1)N(CCO)C1CC1
Percent Effect: -0.6412%

structure: CCNS(=O)(=O)C1CCN(Cc2cc(F)cc(F)c2)C1 (configuration not stated)
Percent Effect: 16.68%

structure: N#Cc1sc(-c2ccccc2)nc1N
Percent Effect: -70.84%

structure: CCN(CC(=O)NC)C(=O)C(C)SC (configuration not stated)
Percent Effect: 23.69%

structure: CCn1nc(C)cc1C(=O)N(C)S(=O)(=O)C(C)C
Percent Effect: -0.3711%

structure: OCCc1cnn(-c2ccc(F)cn2)c1
Percent Effect: -12.36%

structure: Clc1cnc(C2CCNCC2)nc1
Percent Effect: 11.17%

structure: O=C1CCC(O)CN1 (configuration not stated)
Percent Effect: 24.53%

structure: CN(C)Cc1ccc(Oc2ncccc2C#N)cc1
Percent Effect: -4.277%

structure: COC1(c2noc(-c3ccco3)n2)CCOCC1
Percent Effect: -5.161%

structure: CNC(=O)c1cccc(CN(CC(C)(C)O)C(C)C)c1
Percent Effect: 5.975%

Source: ChEMBL document CHEMBL3988442, “University of Dundee, Small-Polar-MMV Screening Library” (2021).